In the supplement of paper PMC10849652:
The list shows a part of the results.

The chains behind the UniProt entries cited, without tags or fusion partners. Where a name states a change or a piece, a line headed by the entry shows the natural chain unless it says otherwise.
UniProt Q6UW63: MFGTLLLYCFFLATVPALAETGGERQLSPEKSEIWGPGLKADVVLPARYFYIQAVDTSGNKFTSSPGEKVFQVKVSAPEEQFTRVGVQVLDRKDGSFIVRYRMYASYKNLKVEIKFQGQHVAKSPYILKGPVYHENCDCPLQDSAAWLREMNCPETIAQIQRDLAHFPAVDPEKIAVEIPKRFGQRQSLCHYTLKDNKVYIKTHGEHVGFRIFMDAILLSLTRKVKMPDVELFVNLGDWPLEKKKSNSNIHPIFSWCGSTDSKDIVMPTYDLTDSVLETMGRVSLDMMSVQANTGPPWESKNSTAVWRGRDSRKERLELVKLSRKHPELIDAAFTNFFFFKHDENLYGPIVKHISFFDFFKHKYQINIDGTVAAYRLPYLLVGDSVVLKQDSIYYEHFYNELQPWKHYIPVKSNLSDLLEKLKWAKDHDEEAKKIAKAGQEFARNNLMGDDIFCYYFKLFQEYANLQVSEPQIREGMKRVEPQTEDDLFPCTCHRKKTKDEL
UniProt O60568: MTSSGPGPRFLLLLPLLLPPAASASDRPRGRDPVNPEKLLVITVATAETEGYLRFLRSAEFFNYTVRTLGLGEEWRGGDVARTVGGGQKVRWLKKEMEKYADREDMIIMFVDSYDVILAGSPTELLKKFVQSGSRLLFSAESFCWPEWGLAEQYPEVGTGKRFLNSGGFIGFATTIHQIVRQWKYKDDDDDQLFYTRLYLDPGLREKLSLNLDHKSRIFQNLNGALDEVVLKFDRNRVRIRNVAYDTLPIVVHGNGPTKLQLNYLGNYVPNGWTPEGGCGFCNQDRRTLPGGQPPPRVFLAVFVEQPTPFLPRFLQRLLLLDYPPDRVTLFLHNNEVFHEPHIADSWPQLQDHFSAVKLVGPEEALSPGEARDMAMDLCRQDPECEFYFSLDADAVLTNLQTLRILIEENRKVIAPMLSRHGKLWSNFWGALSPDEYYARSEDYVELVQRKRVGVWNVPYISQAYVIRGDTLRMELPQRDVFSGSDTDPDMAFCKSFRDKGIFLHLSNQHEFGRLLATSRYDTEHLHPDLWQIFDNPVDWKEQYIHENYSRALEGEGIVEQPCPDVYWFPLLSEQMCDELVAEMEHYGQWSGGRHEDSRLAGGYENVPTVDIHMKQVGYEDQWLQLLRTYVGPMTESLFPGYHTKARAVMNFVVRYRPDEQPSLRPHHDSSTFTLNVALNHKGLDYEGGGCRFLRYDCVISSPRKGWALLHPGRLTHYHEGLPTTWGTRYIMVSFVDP
UniProt Q8N490: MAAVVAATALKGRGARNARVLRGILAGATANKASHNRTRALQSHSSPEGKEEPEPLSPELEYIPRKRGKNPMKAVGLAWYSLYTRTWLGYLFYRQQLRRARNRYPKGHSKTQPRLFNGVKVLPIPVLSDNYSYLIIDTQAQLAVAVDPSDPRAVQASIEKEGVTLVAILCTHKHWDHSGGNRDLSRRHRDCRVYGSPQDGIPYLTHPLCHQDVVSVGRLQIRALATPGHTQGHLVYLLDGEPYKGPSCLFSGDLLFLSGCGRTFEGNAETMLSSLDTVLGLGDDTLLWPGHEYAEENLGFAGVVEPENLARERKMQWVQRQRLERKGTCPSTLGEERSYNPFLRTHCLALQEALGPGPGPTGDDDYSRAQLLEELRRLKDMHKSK
UniProt Q13136: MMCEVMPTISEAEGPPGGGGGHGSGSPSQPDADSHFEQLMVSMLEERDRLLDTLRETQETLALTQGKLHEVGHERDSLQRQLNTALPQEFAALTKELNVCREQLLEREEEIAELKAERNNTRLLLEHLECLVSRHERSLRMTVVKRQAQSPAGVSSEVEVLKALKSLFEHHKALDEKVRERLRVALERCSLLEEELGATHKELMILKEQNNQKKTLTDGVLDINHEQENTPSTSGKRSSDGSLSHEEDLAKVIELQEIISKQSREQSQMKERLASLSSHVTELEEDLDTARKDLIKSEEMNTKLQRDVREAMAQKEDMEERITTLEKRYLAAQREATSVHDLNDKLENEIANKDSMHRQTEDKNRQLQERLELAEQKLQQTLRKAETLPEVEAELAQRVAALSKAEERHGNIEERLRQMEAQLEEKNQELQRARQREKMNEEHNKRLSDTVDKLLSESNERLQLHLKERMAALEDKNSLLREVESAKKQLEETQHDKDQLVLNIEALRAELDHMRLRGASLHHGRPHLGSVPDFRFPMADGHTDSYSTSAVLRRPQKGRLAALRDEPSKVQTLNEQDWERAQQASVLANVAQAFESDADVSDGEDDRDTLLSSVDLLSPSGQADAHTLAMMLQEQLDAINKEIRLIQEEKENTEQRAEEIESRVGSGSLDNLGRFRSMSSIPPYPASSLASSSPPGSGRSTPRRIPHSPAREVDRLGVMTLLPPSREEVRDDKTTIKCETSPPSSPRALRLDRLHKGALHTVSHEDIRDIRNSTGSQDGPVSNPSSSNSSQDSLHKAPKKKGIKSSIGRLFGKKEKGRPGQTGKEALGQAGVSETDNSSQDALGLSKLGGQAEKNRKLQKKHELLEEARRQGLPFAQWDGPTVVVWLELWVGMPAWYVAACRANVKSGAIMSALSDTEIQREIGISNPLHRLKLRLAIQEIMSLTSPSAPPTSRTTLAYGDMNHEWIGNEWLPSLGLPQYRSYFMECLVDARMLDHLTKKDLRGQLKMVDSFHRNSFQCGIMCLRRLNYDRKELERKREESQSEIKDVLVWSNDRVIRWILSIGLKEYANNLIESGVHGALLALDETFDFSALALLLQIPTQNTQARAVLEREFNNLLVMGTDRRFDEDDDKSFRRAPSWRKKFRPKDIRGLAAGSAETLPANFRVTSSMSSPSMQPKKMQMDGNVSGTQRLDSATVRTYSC
UniProt O95707: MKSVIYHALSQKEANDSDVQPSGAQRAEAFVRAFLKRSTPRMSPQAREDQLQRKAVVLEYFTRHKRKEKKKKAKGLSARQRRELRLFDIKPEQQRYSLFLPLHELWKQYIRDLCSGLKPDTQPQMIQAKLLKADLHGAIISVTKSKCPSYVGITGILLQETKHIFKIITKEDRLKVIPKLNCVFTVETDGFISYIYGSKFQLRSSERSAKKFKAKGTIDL
UniProt O43314: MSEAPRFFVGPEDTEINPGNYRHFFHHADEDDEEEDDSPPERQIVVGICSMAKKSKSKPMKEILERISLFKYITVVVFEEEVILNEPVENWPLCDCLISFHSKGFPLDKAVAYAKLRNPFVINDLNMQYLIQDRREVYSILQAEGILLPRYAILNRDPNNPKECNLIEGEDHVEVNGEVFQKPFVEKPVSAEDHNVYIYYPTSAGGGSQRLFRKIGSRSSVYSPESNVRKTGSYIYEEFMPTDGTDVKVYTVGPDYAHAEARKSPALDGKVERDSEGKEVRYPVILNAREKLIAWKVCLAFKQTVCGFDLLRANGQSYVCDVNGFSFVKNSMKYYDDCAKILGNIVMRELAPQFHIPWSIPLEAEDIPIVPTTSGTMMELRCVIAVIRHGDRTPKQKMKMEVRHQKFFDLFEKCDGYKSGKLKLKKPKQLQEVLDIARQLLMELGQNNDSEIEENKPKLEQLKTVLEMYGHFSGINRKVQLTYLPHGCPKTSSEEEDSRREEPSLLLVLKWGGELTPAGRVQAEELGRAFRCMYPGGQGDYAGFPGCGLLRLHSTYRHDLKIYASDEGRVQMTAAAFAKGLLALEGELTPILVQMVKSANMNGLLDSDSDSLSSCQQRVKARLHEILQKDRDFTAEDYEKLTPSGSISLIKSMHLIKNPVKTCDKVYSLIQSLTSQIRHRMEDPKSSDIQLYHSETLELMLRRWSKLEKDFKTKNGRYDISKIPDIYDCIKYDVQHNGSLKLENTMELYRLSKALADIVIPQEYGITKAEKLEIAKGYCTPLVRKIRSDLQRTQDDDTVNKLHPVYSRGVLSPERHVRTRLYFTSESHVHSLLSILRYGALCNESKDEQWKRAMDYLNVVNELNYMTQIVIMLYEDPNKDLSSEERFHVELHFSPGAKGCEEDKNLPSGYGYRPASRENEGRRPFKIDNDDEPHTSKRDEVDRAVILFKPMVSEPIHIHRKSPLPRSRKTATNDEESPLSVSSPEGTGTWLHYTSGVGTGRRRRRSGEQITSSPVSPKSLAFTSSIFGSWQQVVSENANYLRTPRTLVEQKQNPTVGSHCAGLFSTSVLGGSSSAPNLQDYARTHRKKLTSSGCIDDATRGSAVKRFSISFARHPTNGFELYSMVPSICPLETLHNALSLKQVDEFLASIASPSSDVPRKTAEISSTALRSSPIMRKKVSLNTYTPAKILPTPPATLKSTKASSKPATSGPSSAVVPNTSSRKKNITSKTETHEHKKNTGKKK
UniProt Q969H6: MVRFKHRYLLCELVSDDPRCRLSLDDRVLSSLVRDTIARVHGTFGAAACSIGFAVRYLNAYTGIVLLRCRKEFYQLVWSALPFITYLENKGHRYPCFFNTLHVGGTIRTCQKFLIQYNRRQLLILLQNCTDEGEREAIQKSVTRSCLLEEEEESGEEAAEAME
UniProt Q14651: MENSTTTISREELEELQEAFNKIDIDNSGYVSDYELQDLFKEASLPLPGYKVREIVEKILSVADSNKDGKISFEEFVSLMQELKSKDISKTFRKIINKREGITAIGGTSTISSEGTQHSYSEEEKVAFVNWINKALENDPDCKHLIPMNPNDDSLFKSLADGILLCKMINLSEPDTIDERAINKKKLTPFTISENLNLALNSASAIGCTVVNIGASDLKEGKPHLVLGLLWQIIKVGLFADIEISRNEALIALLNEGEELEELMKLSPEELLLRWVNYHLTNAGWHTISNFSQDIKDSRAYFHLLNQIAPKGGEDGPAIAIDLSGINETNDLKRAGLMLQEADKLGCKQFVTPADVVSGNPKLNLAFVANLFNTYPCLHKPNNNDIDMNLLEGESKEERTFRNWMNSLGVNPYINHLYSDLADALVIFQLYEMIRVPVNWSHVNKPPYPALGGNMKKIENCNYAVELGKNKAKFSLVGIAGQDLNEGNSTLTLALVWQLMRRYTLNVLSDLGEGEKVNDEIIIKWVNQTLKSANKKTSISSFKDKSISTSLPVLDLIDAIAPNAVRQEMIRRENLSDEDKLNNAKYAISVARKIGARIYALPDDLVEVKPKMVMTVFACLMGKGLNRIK
UniProt P35813: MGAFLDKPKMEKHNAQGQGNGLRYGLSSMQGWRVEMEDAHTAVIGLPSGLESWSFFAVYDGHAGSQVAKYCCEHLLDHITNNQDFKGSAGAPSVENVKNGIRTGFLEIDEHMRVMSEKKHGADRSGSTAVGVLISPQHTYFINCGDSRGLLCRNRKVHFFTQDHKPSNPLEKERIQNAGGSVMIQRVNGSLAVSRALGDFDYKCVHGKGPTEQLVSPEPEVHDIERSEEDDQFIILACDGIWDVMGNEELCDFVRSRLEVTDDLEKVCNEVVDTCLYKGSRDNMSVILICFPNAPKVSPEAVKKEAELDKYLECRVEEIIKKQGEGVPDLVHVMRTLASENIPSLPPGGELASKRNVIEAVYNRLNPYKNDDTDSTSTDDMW
UniProt Q13794: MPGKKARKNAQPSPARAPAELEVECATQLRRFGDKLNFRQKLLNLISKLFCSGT
UniProt P13797: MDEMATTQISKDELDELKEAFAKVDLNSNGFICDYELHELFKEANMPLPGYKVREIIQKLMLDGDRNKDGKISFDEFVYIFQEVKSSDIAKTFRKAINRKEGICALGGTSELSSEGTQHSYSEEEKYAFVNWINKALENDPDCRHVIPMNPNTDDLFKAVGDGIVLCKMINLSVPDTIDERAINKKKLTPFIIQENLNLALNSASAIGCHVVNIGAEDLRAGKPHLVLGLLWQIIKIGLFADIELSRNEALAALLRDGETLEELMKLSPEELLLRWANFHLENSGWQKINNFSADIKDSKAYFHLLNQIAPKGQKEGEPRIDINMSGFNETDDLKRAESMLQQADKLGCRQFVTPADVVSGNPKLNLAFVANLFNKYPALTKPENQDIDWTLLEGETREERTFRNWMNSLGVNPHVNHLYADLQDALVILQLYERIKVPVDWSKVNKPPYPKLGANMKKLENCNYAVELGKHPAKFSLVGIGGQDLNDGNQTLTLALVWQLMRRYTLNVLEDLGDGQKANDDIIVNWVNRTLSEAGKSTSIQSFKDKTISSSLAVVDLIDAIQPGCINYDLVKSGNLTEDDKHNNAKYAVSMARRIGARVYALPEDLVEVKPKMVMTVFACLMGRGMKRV
UniProt Q6P1K2: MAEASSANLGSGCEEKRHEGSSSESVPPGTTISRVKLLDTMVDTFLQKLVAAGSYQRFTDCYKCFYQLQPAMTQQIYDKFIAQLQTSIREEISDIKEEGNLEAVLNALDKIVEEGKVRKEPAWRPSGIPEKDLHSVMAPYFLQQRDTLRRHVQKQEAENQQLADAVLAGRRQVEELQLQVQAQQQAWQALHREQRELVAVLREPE

Columns and labels:
Experiment in all cases: log2 fold change, soluble protein after heating vs DMSO (PISA); higher = thermal stabilisation; K562 cells, 10 uM, 30 min; active = over 0.2 and 3.5 SD of the protein, either way, in both replicates (recomputed)
[1] = compound: CC[C@@H]1C(=O)N(C)c2cnc(Nc3ccc(C(=O)NC4CCN(C)CC4)cc3OC)nc2N1C1CCCC1
Method in brief: (§1)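 Thermal stability values are relative to control samples and come from duplicates. They are expressed as log2 fold changes. For measurement, K562 cells (2×10^6 cells/mL) received 10 μM compound for 30 min, and aliquots were heated for 3 min over 48°C-58°C, pooled, and extracted at 4°C in PBS with 0.5% NP-40. Soluble protein, the supernatant after 21,000xg for 90 min, was quantified by TMTpro 16plex LC-MS/MS with equalised channel sums.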

volasertib = compound: CC[C@@H]1C(=O)N(C)c2cnc(Nc3ccc(C(=O)N[C@H]4CC[C@H](N5CCN(CC6CC6)CC5)CC4)cc3OC)nc2N1C(C)C [volasertib]
Method in brief: as §1

[2] = compound: CC[C@H](C)N1C=C(C2=C(C=C(C=C21)C3=CN=C(C=C3)N4CCNCC4)C(=O)NCC5=C(C=C(NC5=O)C)C)C
Method in brief: as §1

epoxomicin = compound: CC[C@H](C)[C@@H](C(=O)N[C@@H]([C@@H](C)O)C(=O)N[C@@H](CC(C)C)C(=O)[C@]1(CO1)C)NC(=O)[C@H]([C@@H](C)CC)N(C)C(=O)C [epoxomicin]
Method in brief: as §1

[3] = compound: CCn1c(C(=O)N(C2CC2)C2CC2)cc2c3c(ncn3C)c(Nc3cc(C)n(C)n3)nc21
Method in brief: as §1

[4] = compound: CCn1cc(-c2ccnc3[nH]c(-c4cccc(CN(C)C)c4)cc23)c(-c2ccc(NC(=O)N(C)C)cc2)n1
Method in brief: as §1

[5] = compound: CN(C)CC(=O)Nc1ccc2[nH]c(=O)c3ccccc3c2c1
Method in brief: as §1

rosiglitazone = compound: CN(CCOC1=CC=C(C=C1)C[C@H]2C(=O)NC(=O)S2)C3=CC=CC=N3 (racemic) [rosiglitazone]
Method in brief: as §1

[6] = compound: CN1C2=C(C3=C1C(=O)N(N=C3)CC4=CC(=CC=C4)N)SC(=C2)S(=O)C
Method in brief: as §1

[7] = compound: CN1CCC(CNc2ccc3ncc(-c4cccc(OC(F)(F)F)c4)n3n2)CC1
Method in brief: as §1

saracatinib = compound: CN1CCN(CCOc2cc(OC3CCOCC3)c3c(Nc4c(Cl)ccc5c4OCO5)ncnc3c2)CC1 [saracatinib]
Method in brief: as §1

sotrastaurin = compound: CN1CCN(c2nc(C3=C(c4c[nH]c5ccccc45)C(=O)NC3=O)c3ccccc3n2)CC1 [sotrastaurin]
Method in brief: as §1

alvocidib = compound: CN1CC[C@H](c2c(O)cc(O)c3c(=O)cc(-c4ccccc4Cl)oc23)[C@H](O)C1 [alvocidib]
Method in brief: as §1

Tubastatin A = compound: CN1CCc2c(c3ccccc3n2Cc2ccc(C(=O)NO)cc2)C1 [Tubastatin A]
Method in brief: as §1

[8] = compound: CNC(=O)C1=CC=CC=C1NC2=NC(=NC=C2Cl)NC3=C(C=C(C=C3)N4CCOCC4)OC
Method in brief: as §1

defactinib = compound: CNC(=O)c1ccc(Nc2ncc(C(F)(F)F)c(NCc3nccnc3N(C)S(C)(=O)=O)n2)cc1 [defactinib]
Method in brief: as §1

rucaparib = compound: CNCc1ccc(-c2[nH]c3cc(F)cc4c3c2CCNC4=O)cc1 [rucaparib]
Method in brief: as §1

[9] = compound: CNc1nc(-c2ccc3c(N)n[nH]c3c2)cc(N2C[C@@H](C(=O)NC3CCCCC3)CC[C@H]2C)n1
Method in brief: as §1

encorafenib = compound: COC(=O)N[C@@H](C)CNc1nccc(-c2cn(C(C)C)nc2-c2cc(Cl)cc(NS(C)(=O)=O)c2F)n1 [encorafenib]
Method in brief: as §1

[10] = compound: COC(=O)[C@H](CCSC)NC(=O)C1=C(C=C(C=C1)NC[C@H](CS)N)C2=CC=CC=C2
Method in brief: as §1

Measured: log2 fold change

POGLUT2 (UniProt Q6UW63)
inactive: [1] -0.005 | volasertib 0.003 | [2] 0.035 | epoxomicin 0.009 | [3] -0.007 | [4] 0.045 | [5] -0.058 | rosiglitazone 0.005 | [6] 0.03 | [7] 0.034 | saracatinib -0.067 | sotrastaurin 0.015 | alvocidib -0.002 | Tubastatin A -0.011 | [8] 0.007 | defactinib 0.031 | rucaparib -0.007 | [9] -0.027 | encorafenib 0.058 | [10] -0.035

PLOD3 (UniProt O60568)
inactive: [1] 0.05 | volasertib 0.088 | [2] -0.007 | epoxomicin -0.022 | [3] 0.01 | [4] 0.027 | [5] -0.053 | rosiglitazone 0 | [6] 0.037 | [7] 0.138 | saracatinib -0.069 | sotrastaurin 0.008 | alvocidib 0.021 | Tubastatin A 0.012 | [8] 0.013 | defactinib 0.066 | rucaparib 0.011 | [9] 0.026 | encorafenib 0.061 | [10] -0.024

POLR3A (UniProt O14802)
inactive: [1] -0.069 | volasertib -0.342 | [2] 0.318 | epoxomicin 0.014 | [3] -0.012 | [4] -0.015 | [5] 0.045 | rosiglitazone 0.114 | [6] 0.054 | [7] -0.016 | saracatinib -0.067 | sotrastaurin -0.212 | alvocidib -0.073 | Tubastatin A 0.071 | [8] 0.017 | defactinib -0.024 | rucaparib 0.089 | [9] -0.02 | encorafenib 0.076 | [10] -0.059

PNKD isoform 3 (UniProt Q8N490)
inactive: [1] -0.057 | volasertib 0.045 | [2] -0.022 | epoxomicin 0.007 | [3] -0.003 | [4] 0.048 | [5] 0.005 | rosiglitazone -0.221 | [6] -0.014 | [7] 0.084 | saracatinib -0.079 | sotrastaurin 0.05 | alvocidib -0.061 | Tubastatin A 0.133 | [8] -0.02 | defactinib 0.011 | rucaparib 0.095 | [9] -0.046 | encorafenib -0.009 | [10] 0.025

PPFIA1 (UniProt Q13136)
inactive: [1] 0.066 | volasertib -0.279 | [2] -0.278 | epoxomicin -0.034 | [3] -0.079 | [4] -0.003 | [5] -0.03 | rosiglitazone 0.07 | [6] 0.069 | [7] 0.013 | saracatinib 0.024 | sotrastaurin -0.028 | alvocidib -0.014 | Tubastatin A 0.102 | [8] 0.005 | defactinib -0.003 | rucaparib -0.047 | [9] 0.002 | encorafenib 0.053 | [10] -0.005

POLR2H (UniProt P52434)
inactive: [1] 0.003 | volasertib -0.165 | [2] 0.023 | epoxomicin -0.052 | [3] -0.071 | [4] 0.015 | [5] 0.01 | rosiglitazone 0.046 | [6] -0.024 | [7] -0.083 | saracatinib -0.026 | sotrastaurin -0.019 | alvocidib 0.053 | Tubastatin A -0.021 | [8] -0.063 | defactinib 0.029 | rucaparib 0.048 | [9] 0.04 | encorafenib -0.016 | [10] -0.089

POP4 (UniProt O95707)
inactive: [1] -0.082 | volasertib 0.168 | [2] 0.027 | epoxomicin -0.055 | [3] 0.017 | [4] -0.041 | [5] -0.031 | rosiglitazone 0.055 | [6] -0.024 | [7] 0.069 | saracatinib -0.021 | sotrastaurin -0.05 | alvocidib -0.002 | Tubastatin A 0.01 | [8] -0.01 | defactinib 0.039 | rucaparib 0.169 | [9] 0.026 | encorafenib 0.079 | [10] -0.005

PPIP5K2 (UniProt O43314)
inactive: [1] 0.024 | volasertib 0.032 | [2] -0.004 | epoxomicin 0.047 | [3] -0.033 | [4] -0.058 | [5] 0.011 | rosiglitazone 0.029 | [6] -0.055 | [7] 0.01 | saracatinib 0.015 | sotrastaurin 0.016 | alvocidib -0.031 | Tubastatin A -0.019 | [8] 0.013 | defactinib -0.008 | rucaparib -0.077 | [9] -0.05 | encorafenib -0.02 | [10] 0.028

POP5 (UniProt Q969H6)
inactive: [1] 0.092 | volasertib 0.081 | [2] -0.081 | epoxomicin 0 | [3] 0.039 | [4] -0.012 | [5] -0.048 | rosiglitazone -0.111 | [6] -0.089 | [7] 0.073 | saracatinib 0.026 | sotrastaurin 0.117 | alvocidib 0.014 | Tubastatin A -0.029 | [8] -0.024 | defactinib -0.001 | rucaparib -0.01 | [9] 0.001 | encorafenib 0.072 | [10] 0.023

PPAT (UniProt Q06203)
inactive: [1] 0.028 | volasertib 0.058 | [2] -0.02 | epoxomicin -0.012 | [3] 0.006 | [4] -0.01 | [5] -0.016 | rosiglitazone 0.019 | [6] -0.062 | [7] 0.018 | saracatinib 0.022 | sotrastaurin 0.024 | alvocidib -0.015 | Tubastatin A -0.005 | [8] 0.031 | defactinib -0.013 | rucaparib -0.051 | [9] -0.032 | encorafenib 0.001 | [10] -0.007

PLS1 (UniProt Q14651)
inactive: [1] -0.043 | volasertib -0.13 | [2] 0.043 | epoxomicin 0.004 | [3] -0.035 | [4] -0.046 | [5] 0.023 | rosiglitazone 0.007 | [6] -0.061 | [7] -0.09 | saracatinib -0.02 | sotrastaurin -0.017 | alvocidib -0.077 | Tubastatin A -0.002 | [8] -0.019 | defactinib -0.055 | rucaparib 0.026 | [9] -0.02 | encorafenib -0.033 | [10] -0.028

Reprinted from the listing (two entries):
POP5 (UniProt Q969H6)
inactive: [1] 0.092 | volasertib 0.081 | [2] -0.081 | epoxomicin 0 | [3] 0.039 | [4] -0.012 | [5] -0.048 | rosiglitazone -0.111 | [6] -0.089 | [7] 0.073 | saracatinib 0.026 | sotrastaurin 0.117 | alvocidib 0.014 | Tubastatin A -0.029 | [8] -0.024 | defactinib -0.001 | rucaparib -0.01 | [9] 0.001 | encorafenib 0.072 | [10] 0.023

PPAT (UniProt Q06203)
inactive: [1] 0.028 | volasertib 0.058 | [2] -0.02 | epoxomicin -0.012 | [3] 0.006 | [4] -0.01 | [5] -0.016 | rosiglitazone 0.019 | [6] -0.062 | [7] 0.018 | saracatinib 0.022 | sotrastaurin 0.024 | alvocidib -0.015 | Tubastatin A -0.005 | [8] 0.031 | defactinib -0.013 | rucaparib -0.051 | [9] -0.032 | encorafenib 0.001 | [10] -0.007

Further entries

PPM1A isoform 3 (UniProt P35813)
inactive: [1] -0.007 | volasertib 0.028 | [2] 0.021 | epoxomicin 0.048 | [3] -0.022 | [4] -0.045 | [5] 0.037 | rosiglitazone 0.052 | [6] -0.028 | [7] -0.035 | saracatinib -0.036 | sotrastaurin 0.047 | alvocidib -0.05 | Tubastatin A 0.039 | [8] 0.008 | defactinib -0.017 | rucaparib -0.062 | [9] 0.04 | encorafenib -0.004 | [10] -0.019

PMAIP1 (UniProt Q13794)
inactive: [1] -0.042 | volasertib -0.042 | [2] -0.003 | epoxomicin 0.317 | [3] 0.181 | [4] 0.072 | [5] -0.035 | rosiglitazone -0.027 | [6] 0.036 | [7] 0.095 | saracatinib -0.076 | sotrastaurin -0.01 | alvocidib -0.027 | Tubastatin A 0.284 | [8] -0.029 | defactinib 0.05 | rucaparib -0.113 | [9] -0.006 | encorafenib 0.147 | [10] -0.014

PPA2 (UniProt Q9H2U2)
inactive: [1] 0.025 | volasertib 0.092 | [2] -0.004 | epoxomicin 0.044 | [3] -0.008 | [4] -0.051 | [5] 0.011 | rosiglitazone 0.021 | [6] -0.084 | [7] -0.007 | saracatinib 0.006 | sotrastaurin 0.055 | alvocidib -0.018 | Tubastatin A -0.005 | [8] 0.037 | defactinib 0.038 | rucaparib -0.081 | [9] -0.075 | encorafenib 0 | [10] 0.002

PLS3 (UniProt P13797)
inactive: [1] 0.026 | volasertib -0.013 | [2] -0.049 | epoxomicin -0.031 | [3] -0.011 | [4] -0.019 | [5] -0.017 | rosiglitazone 0.018 | [6] -0.029 | [7] 0.037 | saracatinib 0.033 | sotrastaurin 0.046 | alvocidib -0.033 | Tubastatin A 0.001 | [8] 0.029 | defactinib -0.007 | rucaparib -0.115 | [9] -0.014 | encorafenib -0.003 | [10] 0.025

PMF1 (UniProt Q6P1K2)
inactive: [1] -0.007 | volasertib -0.23 | [2] -0.05 | epoxomicin 0.046 | [3] -0.159 | [4] 0.075 | [5] -0.009 | rosiglitazone 0.072 | [6] 0 | [7] -0.088 | saracatinib -0.1 | sotrastaurin -0.101 | alvocidib -0.111 | Tubastatin A 0.013 | [8] -0.015 | defactinib -0.002 | rucaparib 0.004 | [9] 0.012 | encorafenib -0.008 | [10] 0.036
